This is an account of results in patent CN113354737A.

Chains of the proteins cited; added tags and fusions are not shown. Residues count along the entry.
UniProt P51654, residues 25-559: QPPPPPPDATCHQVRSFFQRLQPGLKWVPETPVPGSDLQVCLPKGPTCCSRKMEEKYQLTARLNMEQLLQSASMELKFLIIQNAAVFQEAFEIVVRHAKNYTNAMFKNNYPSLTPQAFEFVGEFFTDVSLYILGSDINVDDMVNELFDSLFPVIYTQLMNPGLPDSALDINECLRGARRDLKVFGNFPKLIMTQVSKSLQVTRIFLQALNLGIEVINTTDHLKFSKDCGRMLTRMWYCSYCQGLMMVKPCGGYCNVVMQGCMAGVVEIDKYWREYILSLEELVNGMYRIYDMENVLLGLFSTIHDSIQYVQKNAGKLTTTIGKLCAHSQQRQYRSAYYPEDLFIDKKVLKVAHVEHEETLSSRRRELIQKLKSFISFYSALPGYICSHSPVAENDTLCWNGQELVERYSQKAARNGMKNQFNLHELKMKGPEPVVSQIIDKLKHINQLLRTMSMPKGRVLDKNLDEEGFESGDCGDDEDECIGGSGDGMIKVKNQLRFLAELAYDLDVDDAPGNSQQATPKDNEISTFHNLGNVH

This assay deals with 重组人GPC3胞外区抗原 (human) (UniProt P51654). Briefly: ELISA, coated antigen (Fig. 1A). (In general: An ELISA detects its analyte on a solid surface through an enzyme-linked reagent.)

These are yes or no findings as the source states them, for the method shown. Some entries that bind do so weakly or less than the wild type.

B1: 人源GPC3抗体10C7 (antibody, V domains shown)
VH: QVQLVQSGAEVKKPGASVKLSCKASGYTFTDYEMHWVKQTPGKGLKWIGALDPKTGDTAYAQKFQGRATLTADTSTDTAYMELSSLRSEDSAVYYCTRFYSYTYWGQGTLVTVSS
VL: DIVLTQSPLSLTVTPGEPASISCRSSESLVHSNGNTYLSWLQQRPGQPPRLLIYKISNRFSGVPDRFSGSGAGTDFTLKISRVEAEDVGVYYCTQATQFPYTFGQGTKVEIK
Turning to B1, the binding entry is given as “binds”.
